# Data as given in PubChem BioAssay AID1224830 (NIAID, 2016).
# Screen: 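Regulators of TLR4 signalling towards TNF-alpha in macrophage-like cells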 (primary screen)
# System: human THP-1 monocytic leukaemia cells, TNF dual-luciferase reporter clone, PMA-differentiated to macrophage-like cells
# Reagents: siRNA pool against human genes, 50 nM
# Time to read-out: LPS for 4 h, given about 3 days after siRNA transfection
# Conditions: bacterial LPS (TLR4 ligand), 10 ng/ml
# Detection: 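Ratio of firefly to renilla light, scaled to the plate median and expressed as a robust z-score per replicate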
# Reading the numbers: TNF reporter robust z-score: higher = stronger TNF reporter response to LPS
# Call rule: 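a well is active when its z-score exceeds 2.8 or falls below -1.5; control wells carry no call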
# The deposit covers about 18,000 reagents; this is a random part of them. About 2,900 of all reagents (16%) count as active. 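Calls are made per well; low scores hint the gene aids the LPS response, high scores that it dampens it.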 Repeated entries: four replicate wells of each siRNA pool. No sequences are given here.
gene symbol,TNF reporter robust z-score,Call
DNAAF11,-0.26,inactive
DNAAF11,0.28,inactive
DNAAF11,0.09,inactive
DNAAF11,2.04,inactive
FAM180A,-0.85,inactive
FAM180A,-0.73,inactive
FAM180A,-1.01,inactive
FAM180A,0.54,inactive
EOGT,-0.66,inactive
EOGT,-0.71,inactive
EOGT,-0.27,inactive
EOGT,-0.43,inactive
RBM43,-0.64,inactive
RBM43,0.22,inactive
RBM43,0.1,inactive
RBM43,0.16,inactive

Not a retest: entries from further up.
gene symbol,TNF reporter robust z-score,Call
DNAAF11,-0.26,inactive
DNAAF11,0.28,inactive

The list goes on:
gene symbol,TNF reporter robust z-score,Call
FAM53B,0.16,inactive
FAM53B,-0.52,inactive
FAM53B,0.18,inactive
FAM53B,-0.27,inactive
OBP2A,0.42,inactive
OBP2A,0.1,inactive
OBP2A,0.92,inactive
OBP2A,0.17,inactive
WASL,1.96,inactive
WASL,0.92,inactive
WASL,-0.46,inactive
WASL,-0.63,inactive
CAP2,0.72,inactive
CAP2,0.41,inactive
CAP2,0.34,inactive
CAP2,0.44,inactive
SCAF11,0.31,inactive
SCAF11,0.9,inactive
SCAF11,-1.08,inactive
SCAF11,0.4,inactive
NATD1,3.08,active
NATD1,3.81,active
NATD1,1.75,inactive
NATD1,0.45,inactive
TSPAN3,0.6,inactive
TSPAN3,1.58,inactive
TSPAN3,0.15,inactive
TSPAN3,1.41,inactive
SYF2,1.46,inactive
SYF2,-0.65,inactive
SYF2,-0.8,inactive
SYF2,-1.06,inactive
